Data on one molecule can be found in patent EP1693456A1.

In this test the target is SYNE-1 (UniProt Q8NF91). As to the kind of experiment: yeast two hybrid screen of cDNA libraries.

These are yes or no findings as the source states them, for the method shown. Binding calls can cover weak binding; strength is not graded here.

B1: bait designed in the C-terminal region of the hBAI2 gene product (without insertion of the amino acid residue) (protein, human, UniProt O60241-2 1175-1584, looked up)
chain: MTDRRSVLFQALFAVFNSAQGFVITAVHCFLRREVQDVVKCQMGVCRADESEDSPDSCKNGQLQILSDFEKDVDLACQTVLFKEVNTCNPSTITGTLSRLSLDEDEEPKSCLVGPEGSLSFSPLPGNILVPMAASPGLGEPPPPQEANPVYMCGEGGLRQLDLTWLRPTEPGSEGDYMVLPRRTLSLQPGGGGGGGEDAPRARPEGTPRRAAKTVAHTEGYPSFLSVDHSGLGLGPAYGSLQNPYGMTFQPPPPTPSARQVPEPGERSRTMPRTVPGSTMKMGSLERKKLRYSDLDFEVMHTRKRHSELYHELNQKFHTFDRYRSQSTAKREKRWSVSSGGAAERSVCTDKPSPGERPSLSQHRRHQSWSTFKSMTLGSLPPKPRERLTLHRAAAWEPTEPPDGDFQTEV
For B1, the binding entry is listed as “binds”.
